# Results: patent publication US20020035246A1
# Sequences of proteins named here, by UniProt entry; tags and fusion partners are left off. A change or cut given only in a name is not applied to a line headed by its entry.
# UniProt P04386: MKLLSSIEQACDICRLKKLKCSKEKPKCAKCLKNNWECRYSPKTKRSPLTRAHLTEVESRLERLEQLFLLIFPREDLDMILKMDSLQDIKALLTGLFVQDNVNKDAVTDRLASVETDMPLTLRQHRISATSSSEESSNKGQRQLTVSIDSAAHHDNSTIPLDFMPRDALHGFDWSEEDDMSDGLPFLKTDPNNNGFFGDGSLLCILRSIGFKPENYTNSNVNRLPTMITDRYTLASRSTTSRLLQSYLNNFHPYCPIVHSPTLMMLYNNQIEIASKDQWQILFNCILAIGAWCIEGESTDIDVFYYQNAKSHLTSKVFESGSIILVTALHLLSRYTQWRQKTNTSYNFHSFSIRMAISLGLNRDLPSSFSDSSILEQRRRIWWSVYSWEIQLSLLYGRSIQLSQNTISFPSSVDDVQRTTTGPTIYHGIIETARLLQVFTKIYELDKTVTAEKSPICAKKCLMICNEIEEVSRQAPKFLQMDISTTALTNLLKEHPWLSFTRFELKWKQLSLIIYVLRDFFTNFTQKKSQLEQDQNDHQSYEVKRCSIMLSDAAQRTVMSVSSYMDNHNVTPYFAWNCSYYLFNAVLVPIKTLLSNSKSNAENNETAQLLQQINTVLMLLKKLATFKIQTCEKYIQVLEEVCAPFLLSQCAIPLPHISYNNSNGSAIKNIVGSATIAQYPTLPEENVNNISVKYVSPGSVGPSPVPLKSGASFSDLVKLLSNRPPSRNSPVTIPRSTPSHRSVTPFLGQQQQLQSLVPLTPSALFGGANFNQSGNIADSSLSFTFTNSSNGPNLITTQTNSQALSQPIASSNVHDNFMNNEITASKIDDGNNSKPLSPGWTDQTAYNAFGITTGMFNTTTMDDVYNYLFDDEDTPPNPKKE
# UniProt P97454: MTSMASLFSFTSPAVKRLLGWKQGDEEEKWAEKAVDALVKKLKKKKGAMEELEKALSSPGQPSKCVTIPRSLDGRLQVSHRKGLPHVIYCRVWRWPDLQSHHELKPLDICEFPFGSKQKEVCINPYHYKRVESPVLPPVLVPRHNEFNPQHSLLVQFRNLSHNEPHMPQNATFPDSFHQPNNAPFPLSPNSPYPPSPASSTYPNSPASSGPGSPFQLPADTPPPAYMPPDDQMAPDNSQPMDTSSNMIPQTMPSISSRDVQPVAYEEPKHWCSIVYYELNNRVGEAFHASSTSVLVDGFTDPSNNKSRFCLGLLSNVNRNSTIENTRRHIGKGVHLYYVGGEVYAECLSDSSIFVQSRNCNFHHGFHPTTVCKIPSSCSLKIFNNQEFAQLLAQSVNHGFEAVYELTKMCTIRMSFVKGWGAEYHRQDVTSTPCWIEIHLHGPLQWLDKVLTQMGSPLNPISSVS
# UniProt Q62432: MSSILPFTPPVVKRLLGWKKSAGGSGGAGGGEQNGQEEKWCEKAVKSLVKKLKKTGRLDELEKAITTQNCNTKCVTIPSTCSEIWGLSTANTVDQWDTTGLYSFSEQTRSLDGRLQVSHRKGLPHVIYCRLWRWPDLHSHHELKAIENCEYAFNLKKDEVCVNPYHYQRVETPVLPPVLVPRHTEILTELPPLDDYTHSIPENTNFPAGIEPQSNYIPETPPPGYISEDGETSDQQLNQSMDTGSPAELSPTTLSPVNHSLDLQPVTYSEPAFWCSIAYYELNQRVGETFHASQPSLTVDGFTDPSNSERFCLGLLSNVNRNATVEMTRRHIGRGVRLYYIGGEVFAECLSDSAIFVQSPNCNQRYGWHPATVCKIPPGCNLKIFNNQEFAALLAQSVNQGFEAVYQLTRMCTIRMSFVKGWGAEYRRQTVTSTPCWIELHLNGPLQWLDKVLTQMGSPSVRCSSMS
# No constants are given. Whether binding was seen depends on the method and setting. Some binding calls cover weakened binding; strength is not graded here. Sequences can lack the tags named with a protein.
# Legend:
# [1] = target: mouse SMAD5 C-domain bait (GAL4DBD fusion) (mouse) (UniProt P04386+P97454); test: yeast two-hybrid
# [2] = target: mouse SMAD2 C-domain bait (GAL4DBD fusion) (mouse) (UniProt P04386+Q62432); test: yeast two-hybrid
binder,measurement,setting,value
"SIP7 prey protein (th74; partial open reading frame fused to the GAL4 transactivating domain in pACT2) (protein, not shown: small tags and cut ends) TEPVRTDRRTEDQTATKERLLPPSGPLPRTPAPAPVTAPDTARCAVLAARHGRALSPGPRALAPSAQRCCPASGRAAETPASVGAGALRVGPAQPSQARQPTMLLLSPRSALVSVYCPQIFLLLSTAVTTLSSVVALGANIICNKIPGLAPRQRAICQSRPDAIIVIGEGAQMGIDECQHQFRFGRWNCSALGEKTVFGQELRVGSREAAFTYAITAAGVAHAVTAACSQGNLSNCGCDREKQGYYNQAEGWKWGGCSADVRYGIDFSRRFVDAREIKKNAGS",binding,[1],binds
same,binding,[2],binds
